Data taken from ChEMBL document CHEMBL3988442, “University of Dundee, Small-Polar-MMV Screening Library” (2021).

Protein sequences, listed by entry. Tags and fused reporters are not part of them. Residues count along the entry.
UniProt Q4DA54, 1-478: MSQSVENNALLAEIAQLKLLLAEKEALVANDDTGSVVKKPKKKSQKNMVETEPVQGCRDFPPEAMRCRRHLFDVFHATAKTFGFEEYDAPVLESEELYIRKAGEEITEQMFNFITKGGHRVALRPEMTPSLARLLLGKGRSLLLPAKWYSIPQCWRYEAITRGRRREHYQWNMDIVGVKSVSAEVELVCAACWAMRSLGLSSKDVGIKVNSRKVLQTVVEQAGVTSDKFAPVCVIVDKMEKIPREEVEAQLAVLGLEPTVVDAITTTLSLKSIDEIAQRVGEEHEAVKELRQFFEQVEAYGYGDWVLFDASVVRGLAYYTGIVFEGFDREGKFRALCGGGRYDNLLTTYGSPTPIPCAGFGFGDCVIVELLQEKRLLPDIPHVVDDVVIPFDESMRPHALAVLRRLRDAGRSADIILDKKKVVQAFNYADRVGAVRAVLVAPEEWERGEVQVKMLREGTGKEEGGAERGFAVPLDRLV
UniProt P9WPC5, whole entry: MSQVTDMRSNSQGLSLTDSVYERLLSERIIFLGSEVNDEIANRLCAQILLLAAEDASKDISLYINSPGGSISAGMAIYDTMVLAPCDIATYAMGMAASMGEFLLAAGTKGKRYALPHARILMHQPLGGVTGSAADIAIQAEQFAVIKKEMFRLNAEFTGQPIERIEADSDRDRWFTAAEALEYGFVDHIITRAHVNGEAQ
UniProt P9WPC3, whole entry partner: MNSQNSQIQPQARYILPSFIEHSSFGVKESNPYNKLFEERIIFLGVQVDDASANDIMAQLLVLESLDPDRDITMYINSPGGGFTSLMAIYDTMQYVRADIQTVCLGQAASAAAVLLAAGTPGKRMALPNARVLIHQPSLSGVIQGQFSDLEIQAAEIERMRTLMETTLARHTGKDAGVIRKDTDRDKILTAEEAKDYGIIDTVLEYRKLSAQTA
UniProt Q8IDJ8, 1-583: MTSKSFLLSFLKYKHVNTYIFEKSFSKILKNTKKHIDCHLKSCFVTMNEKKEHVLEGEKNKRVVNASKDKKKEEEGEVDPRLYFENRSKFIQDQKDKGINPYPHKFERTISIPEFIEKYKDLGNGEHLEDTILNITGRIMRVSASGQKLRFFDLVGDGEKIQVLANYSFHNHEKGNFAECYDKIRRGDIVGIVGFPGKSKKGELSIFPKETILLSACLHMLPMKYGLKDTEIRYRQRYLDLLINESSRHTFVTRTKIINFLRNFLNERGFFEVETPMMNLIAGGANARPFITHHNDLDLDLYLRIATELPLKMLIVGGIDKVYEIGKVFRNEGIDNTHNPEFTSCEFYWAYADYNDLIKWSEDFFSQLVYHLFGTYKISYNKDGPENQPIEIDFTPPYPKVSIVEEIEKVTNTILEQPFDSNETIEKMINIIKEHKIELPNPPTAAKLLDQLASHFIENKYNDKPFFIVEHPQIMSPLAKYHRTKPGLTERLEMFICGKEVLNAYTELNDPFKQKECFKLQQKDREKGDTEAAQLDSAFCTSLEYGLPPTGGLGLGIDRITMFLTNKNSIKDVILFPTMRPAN
UniProt A4I591, 1-473: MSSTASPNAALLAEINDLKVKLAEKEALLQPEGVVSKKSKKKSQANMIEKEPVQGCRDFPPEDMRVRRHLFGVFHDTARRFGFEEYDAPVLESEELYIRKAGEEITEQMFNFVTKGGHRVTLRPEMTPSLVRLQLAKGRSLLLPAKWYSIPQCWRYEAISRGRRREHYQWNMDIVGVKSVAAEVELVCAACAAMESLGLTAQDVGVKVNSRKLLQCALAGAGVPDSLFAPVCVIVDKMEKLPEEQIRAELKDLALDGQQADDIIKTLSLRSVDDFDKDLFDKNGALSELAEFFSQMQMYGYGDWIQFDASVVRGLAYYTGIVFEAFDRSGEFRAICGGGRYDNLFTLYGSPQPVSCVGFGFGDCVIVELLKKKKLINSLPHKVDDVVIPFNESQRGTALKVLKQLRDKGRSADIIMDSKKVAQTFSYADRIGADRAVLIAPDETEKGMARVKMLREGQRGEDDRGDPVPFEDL

TcHisRS: 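Histidine-tRNA ligase, Trypanosoma cruzi CL Brener (UniProt Q4DA54). Enzyme assay of histidyl-tRNA synthetase; the read-out is not stated. Compounds at 30 µM. Higher reads as stronger inhibition (inferred: compounds with an IC50 in retests scored well above the rest). About 69,000 compounds were tested under these conditions; 0.045% (about 31) showed 50% or more at least once.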
ClpP1P2: 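ClpP1P2, Mycobacterium tuberculosis (UniProt P9WPC5 and UniProt P9WPC3). Protease assay of ClpP1P2, read by the AMC dye that it sets free. Tested at 50 µM. Direction is inferred from only a few compounds that gave an IC50; most scored high, so higher reads as stronger inhibition. Most other retested compounds had strongly negative values. Of about 69,000 compounds tested this way, about 10 (0.015%) reached 50% or more in at least one test.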
PfKRS1: 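Enzyme assay of the cytosolic lysyl-tRNA synthetase in 384-well plates, read by luminescence. Target: Lysine-tRNA ligase, Plasmodium falciparum 3D7 (UniProt Q8IDJ8). Tested at 30 µM. Higher reads as stronger inhibition, judged from the few compounds that gave an IC50. About 69,000 compounds were tested under these conditions; 0.071% (about 49) showed 50% or more at least once.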
LiHisRS: 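Enzyme assay of histidyl-tRNA synthetase; the read-out is not stated. Target: Histidine-tRNA ligase, Leishmania infantum (UniProt A4I591). Tested at 30 µM. Higher reads as stronger inhibition (inferred: compounds with an IC50 in retests scored well above the rest). The assay is labelled LdHisRS but filed under L. infantum. Of about 69,000 compounds tested this way, about 410 (0.6%) reached 50% or more in at least one test.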

Results are given as percent effect. The controls that fix the scale are not given in the record; negative values are as filed. This is an unselected part of the compounds tested.

| compound | TcHisRS | ClpP1P2 | PfKRS1 | LiHisRS |
|---|---|---|---|---|
| `OCC1CCCCN1c1ccc(-c2nc(-c3ccccc3F)no2)cn1` (stereo not given) | 0 | -17.07 | 2.784 | -1.905 |
| `Cc1cc(C)n(CC(C)Nc2nc(-c3ccncc3)nc3c2CNC3)n1` (stereo not given) | -12.45 | -7.234 | 5.533 | -4.918 |
| `Cc1ccc(CS(=O)(=O)NCc2ccco2)cc1` | 1.058 | -2.852 | 3.164 | -3.03 |
| `CCO[C@H]1CN(C)C[C@@H]1NC(=O)c1cc(C)nc2ccc(C)cc12` | 2.4 | -7.402 | 5.371 | 4.918 |
| `O=C(Cn1cc(C(=O)O)ccc1=O)Nc1cc(F)ccc1F` | 2.273 | 7.853 | 0.8603 | 1.667 |
| `CC(C)c1cc(NC(=O)CN2CCn3c(nnc3C3CC3)C2)on1` | 1.775 | -25.61 | -2.49 | 10.71 |
| `c1cc(-c2nc3c(c(NCCn4ccnn4)n2)CCNCC3)ccn1` | 2.89 | -5.591 | 0.3645 | 14.89 |
| `Cc1cc(C)n(Cc2cc(C(=O)N3CCCC3c3nccs3)n[nH]2)n1` (stereo not given) | 0 | -3.398 | 3.894 | 8.696 |
| `Cc1nnc([C@@H]2CC[C@@H]3[C@@H](CCN3CC3CCOCC3)O2)o1` | 2.299 | 3.556 | 3.947 | 18.42 |
| `Cn1cc(CN2C[C@@H]3COC[C@]3(C(=O)N3CCCO3)C2)cn1` | 4.813 | 3.569 | -2.14 | 23.08 |
| `CC1(C)CC(CN2CCC3(CCC(=O)N(C4CCC4)C3)CC2)CCO1` (stereo not given) | -3.704 | -22.74 | 0.6005 | 7.843 |
| `COCCN1C[C@@H]2[C@@H](OC)CCN(Cc3cccc(C)n3)[C@@H]2C1` | -0.8264 | -4.282 | -1.223 | 11.43 |
| `CCC(C)S(=O)(=O)N1CCc2nc(C3CCNCC3)ncc2C1` (stereo not given) | -2.222 | -2.486 | 3.649 | 2.062 |
| `CCN1CCN(CC(O)c2ccc(F)cc2)CC1` (stereo not given) | 0 | 10.73 | 10.64 | 11.9 |
| `COCC1CN(Cc2sccc2C)Cc2nnn(CC3CC3)c21` (stereo not given) | 3.96 | -10.28 | 4.593 | 23.29 |
| `Fc1cnc(N2CCO[C@H]3CN(CC4CCCCC4)C[C@H]32)nc1` | 4.673 | 8.435 | -1.968 | 9.722 |
| `CCC1CCCCN1Cc1nc2c(cnn2C)c(=O)[nH]1` (stereo not given) | 6.936 | -36.8 | 3.491 | 8.036 |
| `CCc1ccc(C(=O)N2CCCN(Cc3nccn3CC)CC2)s1` | 8.235 | -28.48 | -1.548 | 9.174 |
| `CC(C)OCCCNC(=O)NCc1cccc(-n2ccnc2)c1` | 4.878 | -12.25 | 4.659 | 5.263 |
| `CC(NC(=O)N1CCS(=O)(=O)CC1)c1ccc(F)cc1Cl` (stereo not given) | 9.554 | 5.11 | -1.723 | 18.31 |
| `CC1CN(C2CCN(Cc3nccn3CC(F)(F)F)CC2)CCO1` (stereo not given) | 3.247 | -11.37 | 0.2498 | 4.839 |
| `CC(C)CN1CCC(NC(=O)N(C)Cc2csc3ccccc23)CC1` | 10.3 | 2.188 | -0.3505 | 13.33 |
| `O=C1NCC2(CCCN(C(=O)c3c[nH]nc3C3CCCCC3)C2)O1` (stereo not given) | 6.186 | 11.43 | 3.841 | 12.64 |
| `Cc1n[nH]c(C)c1CCCNCc1cn(CCC(N)=O)c2ccccc12` | 6.383 | -5.819 | 4.132 | 0 |
| `C=C(C)CN1C(=O)CC(Cc2ccc(F)cc2)C1=O` (stereo not given) | 3.093 | -16.89 | 4.637 | 9.677 |
| `CC(C)=CCN1C(=O)[C@H]2CC[C@@H]1CN(c1ncccn1)C2` | 3.614 | -7.985 | 8.051 | 20.51 |
| `Cc1occc1C(=O)N1C[C@@H]2OCCN(C(C)C)[C@@H]2C1` | 4.202 | 8.824 | 2.545 | 6.422 |
| `CNC(=O)C1CN(c2ccnc(C)n2)CCN(C2CCOCC2)C1` (stereo not given) | 8.812 | -7.411 | 0.5957 | 11.43 |
| `Cc1ccsc1CN(C)CCc1scnc1C` | 14.12 | -6.389 | 0.4753 | 18.25 |
| `Cc1ncc(CN(C)C(=O)Nc2cccc(N3CCOC3=O)c2)s1` | 5.195 | 11.42 | -2.856 | -2.857 |
| `CC(C(=O)NC1CC1)S(=O)(=O)Cc1csc(-c2cccs2)n1` (stereo not given) | 4.706 | 2.637 | -2.011 | 5.556 |
| `O=S(=O)(c1cccnc1)N1CCN(Cc2nc(-c3cccs3)cs2)CC1` | -21.69 | 4.08 | 6.401 | -38.46 |
| `O=C(CCN1CCCC(CO)(CC2CC2)C1)NCc1cccc(Cl)c1` (stereo not given) | 6.736 | 0.2699 | 2.981 | 19.35 |
| `CC(C)c1ccc(S(=O)(=O)NC2CCN(CC(F)(F)F)C2)cc1` (stereo not given) | 3.03 | 3.202 | -2.671 | -4.444 |

The last 3 entries again:

{"compound": "O=S(=O)(c1cccnc1)N1CCN(Cc2nc(-c3cccs3)cs2)CC1", "TcHisRS": -21.69, "ClpP1P2": 4.08, "PfKRS1": 6.401, "LiHisRS": -38.46}
{"compound": "O=C(CCN1CCCC(CO)(CC2CC2)C1)NCc1cccc(Cl)c1", "stereo": "stereo not given", "TcHisRS": 6.736, "ClpP1P2": 0.2699, "PfKRS1": 2.981, "LiHisRS": 19.35}
{"compound": "CC(C)c1ccc(S(=O)(=O)NC2CCN(CC(F)(F)F)C2)cc1", "stereo": "stereo not given", "TcHisRS": 3.03, "ClpP1P2": 3.202, "PfKRS1": -2.671, "LiHisRS": -4.444}